# Laboratory results from the supplement of paper PMC8728848.
# Some of the results follow.
# B1: Blon0732mut (Bifidobacterium longum) (protein)
# chain: MPTSEHKADDATRHLTLIPAPVTLEYTHGTALIGPLVTIEDADQSWETLPIEQLSDELRHRYGVTVLRRRTHGTVISLGLDSRLAHDEYTLDVSESEGIRVRGGGESGLRYGLQTLRQIIGQTSRAIPCLHIQDKPAFAVRAYSLDVTRGRVPTMEFLTWFVDQLALYKYNQFQLYVEHAFAFVELSEAWRGTDPLTAADITYLDEYCARRGIELVPSLATFGHMYMNLRTREHRGLGEFPEDADRPFSFIERMEHHTLNAADPKAHDFASRLIEEYAPLFRSKSFNIGGNETFDLGRGRSAQDAPEAGRDELYAGFVRDLCETLARHGRQPMLWADIALESPRTMDLLPGDITMLNWMYEPQIDESKIQTIATQGRRQFVCPAVRAWSRFFPDYAGAWLNTYHMALAGTKYDAEGMVVTDWGDYGHVNDPRLSVPGLCYGAQNAWNPIEIDAHEMNRRISALVYGDESGRIMDCLARIDSDGVSFPWDLAVQVLELEYGSGTGALNMDVAACMERSSGGKLTLDRTLGCDDARRRMLQWNRERIERRRDCDQVLRDCGDAFAGLDKGGLTAEFLSVMLDGQRLFNELGEELLALADGKDVGSGANRLAADLELWFERYRAQWLSVGRHAELARIAHVVWSLADILRRGAL
# Legend:
# Assay in all cases: glycan array binding signal (z-score within array); higher = stronger binding
# Details in all cases: glycan notation: IUPAC condensed, linker removed
# [1] = molecular target: Neu5Ac(a2-3)Gal(b1-4)GlcNAc(b1-6)[Gal(b1-3)]GalNAc
# Procedure, shortened: (§1)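 Glycan array binding is given as a within-array Z-score, which can be read as non-binding when negative. The arrays, 3228 of them, came from the Consortium for Functional Glycomics database and were retained only where the protein sequence was available. Z-scores were averaged across arrays of the same protein sequence at different concentrations or buffers and across linkers.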
# [2] = molecular target: Neu5Ac(a2-3)Gal(b1-4)GlcNAc(b1-6)[Neu5Ac(a2-3)Gal(b1-3)]GalNAc
# Procedure, shortened: as §1
# [3] = molecular target: Neu5Ac(a2-3)Gal(b1-4)GlcNAc6S
# Procedure, shortened: as §1
# [4] = molecular target: Neu5Ac(a2-3)Gal(b1-4)[Fuc(a1-3)]GlcNAc
# Procedure, shortened: as §1
# [5] = molecular target: Neu5Ac(a2-3)Gal(b1-4)[Fuc(a1-3)]GlcNAc(b1-2)Man
# Procedure, shortened: as §1
# [6] = molecular target: Neu5Ac(a2-3)Gal(b1-4)[Fuc(a1-3)]GlcNAc(b1-3)Gal
# Procedure, shortened: as §1
# [7] = molecular target: Neu5Ac(a2-3)Gal(b1-4)[Fuc(a1-3)]GlcNAc(b1-3)Gal(b1-4)GlcNAc
# Procedure, shortened: as §1
# [8] = molecular target: Neu5Ac(a2-3)Gal(b1-4)[Fuc(a1-3)]GlcNAc(b1-3)Gal(b1-4)[Fuc(a1-3)]GlcNAc(b1-3)Gal(b1-4)[Fuc(a1-3)]GlcNAc
# Procedure, shortened: as §1
# [9] = molecular target: Neu5Ac(a2-3)Gal(b1-4)[Fuc(a1-3)]GlcNAc(b1-3)GalNAc
# Procedure, shortened: as §1
# [10] = molecular target: Neu5Ac(a2-3)Gal(b1-4)[Fuc(a1-3)]GlcNAc(b1-6)[Gal(b1-3)]GalNAc
# Procedure, shortened: as §1
# [11] = molecular target: Neu5Ac(a2-3)Gal(b1-4)[Fuc(a1-3)]GlcNAc(b1-6)[Neu5Ac(a2-3)Gal(b1-3)]GalNAc
# Procedure, shortened: as §1
# [12] = molecular target: Neu5Ac(a2-3)Gal(b1-4)[Fuc(a1-3)]GlcNAc6S
# Procedure, shortened: as §1
# [13] = molecular target: Neu5Ac(a2-3)Gal6S(b1-4)GlcNAc
# Procedure, shortened: as §1
# [14] = molecular target: Neu5Ac(a2-3)Gal6S(b1-4)[Fuc(a1-3)]GlcNAc
# Procedure, shortened: as §1
# Neu5Ac(a2-3)GalNAc = molecular target: Neu5Ac(a2-3)GalNAc
# Procedure, shortened: as §1
# [15] = molecular target: Neu5Ac(a2-3)GalNAc(b1-4)GlcNAc
# Procedure, shortened: as §1
# [16] = molecular target: Neu5Ac(a2-3)[GalNAc(b1-4)]Gal(b1-4)Glc
# Procedure, shortened: as §1
# [17] = molecular target: Neu5Ac(a2-3)[GalNAc(b1-4)]Gal(b1-4)GlcNAc
# Procedure, shortened: as §1
# [18] = molecular target: Neu5Ac(a2-3)[GalNAc(b1-4)]Gal(b1-4)GlcNAc(b1-3)GalNAc
# Procedure, shortened: as §1
# [19] = molecular target: Neu5Ac(a2-3)[Neu5Ac(a2-6)]GalNAc
# Procedure, shortened: as §1
# Neu5Ac(a2-6)Gal = molecular target: Neu5Ac(a2-6)Gal
# Procedure, shortened: as §1
# [20] = molecular target: Neu5Ac(a2-6)Gal(b1-3)GlcNAc(b1-3)[Gal(b1-4)GlcNAc(b1-6)]Gal(b1-4)Glc
# Procedure, shortened: as §1
# Neu5Ac(a2-6)Gal(b1-4)Glc = molecular target: Neu5Ac(a2-6)Gal(b1-4)Glc
# Procedure, shortened: as §1
# [21] = molecular target: Neu5Ac(a2-6)Gal(b1-4)GlcNAc
# Procedure, shortened: as §1
# [22] = molecular target: Neu5Ac(a2-6)Gal(b1-4)GlcNAc(b1-2)Man
# Procedure, shortened: as §1
# [23] = molecular target: Neu5Ac(a2-6)Gal(b1-4)GlcNAc(b1-2)Man(a1-3)Man(b1-4)GlcNAc(b1-4)GlcNAc
# Procedure, shortened: as §1
# [24] = molecular target: Neu5Ac(a2-6)Gal(b1-4)GlcNAc(b1-2)Man(a1-3)[Gal(b1-4)GlcNAc(b1-2)Man(a1-6)]Man(b1-4)GlcNAc(b1-4)GlcNAc
# Procedure, shortened: as §1
# [25] = molecular target: Neu5Ac(a2-6)Gal(b1-4)GlcNAc(b1-2)Man(a1-3)[GlcNAc(b1-2)Man(a1-6)]Man(b1-4)GlcNAc(b1-4)GlcNAc
# Procedure, shortened: as §1
# [26] = molecular target: Neu5Ac(a2-6)Gal(b1-4)GlcNAc(b1-2)Man(a1-3)[GlcNAc(b1-4)][Neu5Ac(a2-6)Gal(b1-4)GlcNAc(b1-2)Man(a1-6)]Man(b1-4)GlcNAc(b1-4)GlcNAc
# Procedure, shortened: as §1
# [27] = molecular target: Neu5Ac(a2-6)Gal(b1-4)GlcNAc(b1-2)Man(a1-3)[Man(a1-6)]Man(b1-4)GlcNAc(b1-4)GlcNAc
# Procedure, shortened: as §1
binder,measurement,setting,value
B1,glycan array binding signal (z-score),[1],-0.59
same,glycan array binding signal (z-score),[2],-0.762
same,glycan array binding signal (z-score),[3],-0.117
same,glycan array binding signal (z-score),[4],0.086
same,glycan array binding signal (z-score),[5],-0.353
same,glycan array binding signal (z-score),[6],-0.303
same,glycan array binding signal (z-score),[7],-0.082
same,glycan array binding signal (z-score),[8],-0.236
same,glycan array binding signal (z-score),[9],2.5
same,glycan array binding signal (z-score),[10],0.262
same,glycan array binding signal (z-score),[11],-0.574
same,glycan array binding signal (z-score),[12],0.259
same,glycan array binding signal (z-score),[13],-0.041
same,glycan array binding signal (z-score),[14],-0.326
same,glycan array binding signal (z-score),Neu5Ac(a2-3)GalNAc,-1.08
same,glycan array binding signal (z-score),[15],-0.99
same,glycan array binding signal (z-score),[16],-0.039
same,glycan array binding signal (z-score),[17],-0.956
same,glycan array binding signal (z-score),[18],-0.009
same,glycan array binding signal (z-score),[19],0.415
same,glycan array binding signal (z-score),Neu5Ac(a2-6)Gal,-0.088
same,glycan array binding signal (z-score),[20],0.143
same,glycan array binding signal (z-score),Neu5Ac(a2-6)Gal(b1-4)Glc,-0.105
same,glycan array binding signal (z-score),[21],0.155
same,glycan array binding signal (z-score),[22],0.009
same,glycan array binding signal (z-score),[23],1.73
same,glycan array binding signal (z-score),[24],0.038
same,glycan array binding signal (z-score),[25],-0.737
same,glycan array binding signal (z-score),[26],-0.459
same,glycan array binding signal (z-score),[27],-0.462

# Reprinted at random: 2 records from the list
binder,measurement,setting,value
B1,glycan array binding signal (z-score),[4],0.086
same,glycan array binding signal (z-score),[7],-0.082
